The text below walks through data of PMC4735607, “Reversal of axonal growth defects in an extraocular fibrosis model by engineering the kinesin–microtubule interface” (Nature Communications, 2016).

The chains behind the UniProt entries cited, without tags or fusion partners. Where a name states a change or a piece, a line headed by the entry shows the natural chain unless it says otherwise.
UniProt P68363: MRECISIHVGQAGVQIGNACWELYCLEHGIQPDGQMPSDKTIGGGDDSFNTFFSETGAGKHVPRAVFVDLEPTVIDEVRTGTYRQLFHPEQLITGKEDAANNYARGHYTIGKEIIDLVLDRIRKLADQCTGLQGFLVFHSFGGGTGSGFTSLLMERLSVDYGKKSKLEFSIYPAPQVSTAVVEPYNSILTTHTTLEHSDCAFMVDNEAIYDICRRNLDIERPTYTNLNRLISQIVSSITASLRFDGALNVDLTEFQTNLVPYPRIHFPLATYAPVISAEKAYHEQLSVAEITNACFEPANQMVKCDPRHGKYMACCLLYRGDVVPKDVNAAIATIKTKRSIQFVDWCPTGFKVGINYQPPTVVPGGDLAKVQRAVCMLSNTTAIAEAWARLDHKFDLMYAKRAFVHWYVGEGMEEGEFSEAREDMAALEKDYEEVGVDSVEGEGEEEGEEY
UniProt Q13509: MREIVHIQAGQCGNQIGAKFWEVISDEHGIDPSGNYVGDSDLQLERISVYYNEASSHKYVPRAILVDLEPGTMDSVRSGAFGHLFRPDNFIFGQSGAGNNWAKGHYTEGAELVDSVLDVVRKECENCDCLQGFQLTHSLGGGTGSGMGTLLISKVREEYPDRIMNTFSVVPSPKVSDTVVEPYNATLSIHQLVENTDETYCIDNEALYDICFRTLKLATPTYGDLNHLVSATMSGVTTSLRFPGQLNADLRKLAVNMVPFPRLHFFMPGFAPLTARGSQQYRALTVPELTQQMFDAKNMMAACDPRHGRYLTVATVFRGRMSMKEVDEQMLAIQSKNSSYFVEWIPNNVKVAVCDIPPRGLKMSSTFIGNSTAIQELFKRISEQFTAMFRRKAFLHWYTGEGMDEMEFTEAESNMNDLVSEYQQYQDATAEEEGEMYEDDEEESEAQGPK

Where a chain is given by its changes, count along the chain named. Names may count otherwise. No constants are given. Whether binding was seen depends on the method and setting. Some binding calls cover weakened binding; strength is not graded here. Tags and fused reporters may be left off the sequences shown.

In assay [1] the target is microtubules of recombinant human TUBA1B/TUBB3 tubulin, wild type (human) (UniProt P68363+Q13509). The assay is described as follows: single-molecule motility assay (total internal reflection fluorescence microscopy); KIF21A constructs on WT, R262A or R262H MTs; concentration not told; both purified.
The target of assay [2] is microtubules of recombinant human TUBA1B/TUBB3 tubulin with TUBB3 R262A (human) (UniProt P68363+Q13509). The assay is described as above.

B1: dimeric kinesin construct KIF21A-552 (residues 1-552, SNAP tag, His6), wild type (domain or fragment, UniProt Q9QXL2 1-552)
chain: MLGAADESSVRVAVRIRPQLAKEKIEGCHICTSVTPGEPQVFLGKDKAFTFDYVFDIDSQQEQIYTQCIEKLIEGCFEGYNATVFAYGQTGAGKTYTMGTGFDVNIMEEEQGIISRAVRHLFKSIDEKKTSAIKNGLPPPEFKVNAQFLELYNEEVLDLFDTTRDIDAKNKKSNIRIHEDSTGGIYTVGVTTRTVNTEPEMMQCLKLGALSRTTASTQMNVQSSRSHAIFTIHVCQTRVCPQTDAENATDNKLISESSPMNEFETLTAKFHFVDLAGSERLKRTGATGERAKEGISINCGLLALGNVISALGDKSKRATHVPYRDSKLTRLLQDSLGGNSQTIMIACVSPSDRDFMETLNTLKYANRARNIKNKVMVNQDRASQQINALRSEITRLQMELMEYKTGKRIIDEEGVESINDMFHENAMLQTENNNLRVRIKAMQETVDALRARITQLVSEQANQVLARAGEGNEEISNMIHSYIKEIEDLRAKLLESEAVNENLRKNLTRATARSPYFSASSAFSPTILSSDKETIEIIDLAKKDLEKLKRKE
modifications: fluorescent dye BG-549 (SNAP-surface 549) on the SNAP tag
On to B1, for which the binding result in assay [1] is “binds”.

B2: D325R KIF21A, dimeric construct KIF21A-552 (residues 1-552, SNAP tag, His6) (domain or fragment, UniProt Q9QXL2 1-552)
chain: B1 chain with D325R
modifications: fluorescent dye BG-549 (SNAP-surface 549) on the SNAP tag
As for B2, in assay [2], the binding result is recorded as “binds”.
